Results deposited as PubChem BioAssay AID1159578 (Peter MacCallum Cancer Centre, 2015).
In all, the deposit lists about 18,000 reagents; this is a random part of them. About 1,030 of all reagents (5.7%) count as active. 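Inactive calls also include pools with fewer than 3300 nuclei, whose migration was not assessed.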 Raw values vary from plate to plate and are shown uncorrected. Further read-outs or replicates are left out here. No sequences are given here.

Aim: 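siRNA pools altering how lymphatic endothelial cells close a scratch wound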 (primary screen)
Cells: human lymphatic endothelial cells
Reagent: siRNA pool against human genes, 40 nM
Time to read-out: 48 h after transfection
Read-out: 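Cells stained with dye and imaged after a scratch; covered wound area and nuclei counted, duplicates averaged, migration set against mock wells and turned into a robust z-score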
Scale: migration robust z-score: higher = faster migration into the scratch; nuclei per well: higher = more cells in the well
Rule for the call: 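Pools averaging fewer than 3300 nuclei are never called; remaining pools count as changed when migration robust z lies outside -2 to 2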
Meaning of the calls: active = migration changed; inactive = no migration change, or too few cells

| target gene | migration robust z-score | nuclei per well, duplicate mean | outcome |
| --- | --- | --- | --- |
| ALPG | 0.36 | 4217 | inactive |
| HIP1R | 0.36 | 6264 | inactive |
| ITIH3 | -0.72 | 5458 | inactive |
| MYH2 | -0.13 | 6608 | inactive |
| SZRD1 | -0.88 | 5867 | inactive |
| BLTP3B | 0.01 | 6062 | inactive |
| FUT2 | -0.16 | 5938 | inactive |
| HIPK4 | -0.02 | 6297 | inactive |
| CCDC172 | 0.86 | 5607 | inactive |
| HORMAD1 | 1.69 | 6256 | inactive |
| CREBZF | -3.45 | 3264 | inactive |
| GPATCH8 | -0.94 | 6131 | inactive |
| PDE1A | -0.36 | 4798 | inactive |
| SLC36A2 | 0.68 | 5952 | inactive |
| SLAMF1 | 0.96 | 5584 | inactive |
| AQP7 | -0.36 | 4538 | inactive |
| C1orf52 | -1.58 | 5984 | inactive |
| ZNF19 | 1.09 | 6837 | inactive |
| UQCR10 | -0.3 | 4978 | inactive |
| CCL28 | 0.99 | 5799 | inactive |
| APOH | 0.68 | 5840 | inactive |
| AKT3 | -3.25 | 4096 | active |
| ZNF248 | -0.92 | 6140 | inactive |
| CLEC2B | -0.68 | 5790 | inactive |
| GNPTAB | -0.45 | 6106 | inactive |
| MOSPD2 | 1.84 | 5725 | inactive |
| LCN9 | -0.78 | 5806 | inactive |
| PCP2 | 0.23 | 5908 | inactive |
| TTC5 | -0.56 | 4524 | inactive |
| CYFIP2 | -1.77 | 5011 | inactive |
| SLC43A3 | 0.15 | 5836 | inactive |
| HPR | -0.21 | 5808 | inactive |
| TSLIG1 | -0.88 | 6068 | inactive |
| NR1I2 | -1.22 | 4298 | inactive |
| KCNC3 | -0.62 | 5882 | inactive |
| OR8U3 | -0.54 | 6350 | inactive |
| KIF4A | 1.3 | 4981 | inactive |
| NUDT10 | 0.88 | 5176 | inactive |
| HAGHL | -0.75 | 5402 | inactive |

Called active, of those listed so far:
| target gene | migration robust z-score | nuclei per well, duplicate mean | outcome |
| --- | --- | --- | --- |
| AKT3 | -3.25 | 4096 | active |
